A word on the AC50: it is the concentration giving half of the maximal activity seen. Low values mean greater potency, high ones weaker potency.

The nature of this experiment: qHTS Assay for Lipid Storage Modulators in Drosophila S3 Cells.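 On cell number change: cells counted by Cell Tracker Red CMTPX staining in the red channel.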 Particulars: BODIPY lipid droplet fluorescence, 18-24 h; for cell number change: measured here: cell count max response, cells fed with added oleic acid. The method in brief:
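Laser-scanning cytometry quantifies lipid droplet accumulation (500–530 nm total intensity; droplet/cell object ratio) in oleic acid-fed (400 uM added) Drosophila S3 cells treated with a concentration series. 20 uM Triacsin C defined 100% inhibition.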
On the technique in general: qHTS replaces the single test concentration by a dilution series.

[1] abbreviates: measured here: lipid fluorescence (Fed channel) AC50, cells fed with added oleic acid.
The mark [2] stands for this setting: measured here: cell number channel AC50, cells fed with added oleic acid.

This is one part of the list. Shown are side measurements of this screen, not its main read-out; they come without a call. The list favours compounds with an active or inconclusive main result. Potencies come from curve fits of mixed quality, noted in brackets.

As to `CC(=O)[C@@]1(O)CC[C@H]2[C@@H]3C[C@H](C)C4=CC(=O)C=C[C@]4(C)[C@@]3(F)[C@@H](O)C[C@@]21C`, the cell number change was -7.21%. Under setting [1], the AC50 was 0.82 µM [falling, full curve, poor fit].
Take `Nc1nc(NCC2CCCO2)nc(Nc2ccc(Cl)cc2)c1[N+](=O)[O-]` (configuration not stated): the cell number change was found to be 49%. Also, under setting [2], the AC50 was 3.26 µM [rising, full curve]. Moreover, the AC50 under setting [1] is 4.61 µM [rising, full curve].
With `O=C(NCC1CCN(Cc2ccc(Cl)cc2)CC1)C1CCCN(c2ncnc3c2nc2n3CCCCC2)C1` (configuration not stated), the cell number change is -5.66%.
`COc1cccc(Cn2c(OCC3CCCO3)nc3c2c(=O)n(C)c(=O)n3C)c1` (configuration not stated): the cell number change was determined as 4.76%. The AC50 under setting [1] is 2.06 µM [rising, full curve, poor fit].
In the case of `O=C(NCc1ccccn1)C1CCC(=O)N1C1CCCCC1` (configuration not stated), the cell number change worked out at 15.2%. Moreover, the AC50 under setting [1] was 29.1 µM [falling, single point].
Regarding `Cc1cccc(N(CC(=O)Nc2ccccc2-c2ccccc2)S(=O)(=O)c2ccccc2)c1C`, the cell number change is -1.66%. Besides, under setting [1], the AC50 is 29.1 µM [falling, single point].
Regarding `Cc1ccc(CCc2nnc(SCC(=O)Nc3cccc(Cl)c3)n2-c2ccccc2)o1`, the cell number change was -69.2%. Moreover, the AC50 under setting [2] was 6.51 µM [falling, partial curve]. For the same molecule, the AC50 under setting [1] was 7.31 µM [falling, partial curve].
Turning to `CC(=O)Nc1ccc(N=Cc2c(O)ccc3ccccc23)cc1`, the cell number change is -0.529%.
With `CC(=O)c1cc2c(cc1NS(=O)(=O)c1ccc(C)cc1)OCCO2`, the cell number change is -6.2%. Moreover, under setting [1], the AC50 is 1.84 µM [rising, partial curve].
Take `O=C(c1cccc(F)c1)N1CCN(C(=O)C2CC2)CC1`: the cell number change is -20.5%. In addition, under setting [2], the AC50 is 0.0058 µM [falling, full curve, poor fit]. Besides, the AC50 under setting [1] was 0.00461 µM [falling, full curve, poor fit].
As for `O=C1c2ccccc2C2=Nc3ccccc3SC(c3cccc(F)c3)C12` (configuration not stated), the cell number change was -45.9%. The AC50 under setting [2] is 29.1 µM [falling, single point]. Besides, the AC50 under setting [1] was 1.16 µM [rising, single point].
Regarding `COc1ccc(-c2c(C)c3cc(O)ccc3oc2=O)cc1`, the cell number change was -23.3%. Besides, the AC50 under setting [1] was 18.4 µM [falling, single point].
Consider `Cc1cc(S(=O)(=O)Nc2ccc(C(=O)NCc3cccnc3)cc2)ccc1F`, for which the cell number change was -24.8%. Further, the AC50 under setting [1] is 6.51 µM [falling, single point].
Turning to `Cc1ccc(CC2C(=O)N(c3ncccn3)C(=O)C2C)cc1` (configuration not stated), the cell number change was -19.4%. The concentration at half-maximal activity (AC50) under setting [2] was 0.164 µM [falling, full curve, poor fit]. The AC50 under setting [1] is 0.651 µM [falling, full curve, poor fit].
With `O=c1[nH]c(/C=C/c2ccccc2OC(F)F)nc2c1cnn2-c1ccccc1`, the cell number change is -10.3%.

The values above are taken from PubChem BioAssay AID2685 (National Center for Advancing Translational Sciences (NCATS), 2010).
